These are yes or no findings as the source states them, for the method shown. Binding seen in cells or lysates may run through a third protein. A yes stands for co-enrichment or nearness to the bait. Other partners may have been found. Where a sequence is shown, tags or fusion partners need not be part of it.
Biological target: T1, Flag-tagged AQP1 (Flag-AQP1) (human) (UniProt P29972)
T1 sequence: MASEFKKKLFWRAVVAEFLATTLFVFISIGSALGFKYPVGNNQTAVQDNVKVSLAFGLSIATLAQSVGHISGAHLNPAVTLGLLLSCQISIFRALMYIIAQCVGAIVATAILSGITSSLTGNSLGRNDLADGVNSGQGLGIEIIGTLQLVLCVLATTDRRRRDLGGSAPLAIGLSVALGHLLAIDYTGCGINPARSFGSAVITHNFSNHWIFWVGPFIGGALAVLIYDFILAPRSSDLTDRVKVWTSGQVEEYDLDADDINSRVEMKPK
Assay: affinity purification with mass spectrometry; extracts of MDA-MB-231 cells stably transfected with Flag-vector or Flag-AQP1, anti-Flag affinity beads, eluted with Flag peptides, SDS-PAGE, silver stain, LC-MS/MS

By UniProt entry, the sequences of proteins in these tests, tags left out.
UniProt P07355: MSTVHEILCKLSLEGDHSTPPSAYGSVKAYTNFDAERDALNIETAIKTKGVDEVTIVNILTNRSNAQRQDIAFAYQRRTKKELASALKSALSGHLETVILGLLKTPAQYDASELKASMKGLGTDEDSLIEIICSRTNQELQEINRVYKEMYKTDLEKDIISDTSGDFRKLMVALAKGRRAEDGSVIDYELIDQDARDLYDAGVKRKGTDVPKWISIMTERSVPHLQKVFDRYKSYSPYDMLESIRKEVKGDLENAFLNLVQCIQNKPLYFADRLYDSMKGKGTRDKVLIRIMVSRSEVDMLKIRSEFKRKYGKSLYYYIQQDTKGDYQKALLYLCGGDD

ANXA2 (endogenous, MDA-MB-231 cells) (from UniProt P07355 1-339)
binding: binds

Reference: PMC9940370
